Laboratory results taken from PubChem BioAssay AID662 (National Center for Advancing Translational Sciences (NCATS), 2007).
This is one part of the list. The main result of the screen is listed elsewhere. These columns were measured beside it and carry no call. Most of these compounds were active or inconclusive in the main read-out, so they are no random draw. The note in brackets gives the kind of curve behind each potency; many fits are weak.

experiment: Cell signaling CRE-BLA (Fsk stim); conditions: CHO CRE-bla reporter (cAMP response element driving beta-lactamase), forskolin EC10, beta-lactamase ratio; measured here: 460 nm blue channel
How it was run: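 Reporter-gene assay: CHO cells with beta-lactamase behind cAMP responsive elements, co-treated with compound and EC10 NKH 477 for 3 hours at 37 degrees Celsius. Activity came from the 460/530 nm CCF4 emission ratio.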

SMILES	AC50
Cn1nc(-c2ccccc2)c2nc3ccccc3nc21	3.98 µM [rising, partial curve]
COc1ccccc1-c1ccc2ncnc(N(C)Cc3ccco3)c2c1	3.98 µM [falling, single point]
Cn1cnc2c1c(=O)n(Cc1ccccc1)c(=O)n2C	7.94 µM [rising, partial curve]
CCOc1ccccc1NC(=O)Cn1nnc(-c2ccc(OCC)c(OCC)c2)n1	1.58 µM [rising, full curve]
O=c1c(CCc2ccccc2)nc2cnc(N3CCNCC3)nc2n1Cc1cccs1	12.6 µM [rising, partial curve]
CCOC(=O)N1CCN(C(=O)c2ccc3c(=O)n(-c4ccc(OC)cc4OC)c(=S)[nH]c3c2)CC1	0.126 µM [falling, full curve]
Cc1cccc(-n2nnc(C(=O)NC3CCCc4ccccc43)c2N)c1 (stereo not drawn)	3.98 µM [falling, single point]
CCN1C(=O)c2ccccc2S(=O)c2ccc(C(=O)NC3CC3)cc21 (stereo not drawn)	12.6 µM [rising, single point]
CCOC(=O)NC(Nc1nnc(SCC)s1)(C(F)(F)F)C(F)(F)F	0.631 µM [falling, full curve]
O=C1CN(CC(=O)N2CCOCC2)c2ccccc2O1	0.0631 µM [falling, full curve]
Cc1ccc(-n2nc3ccc(N)cc3n2)cc1	10 µM [rising, partial curve]
O=C1N=C(c2ccccc2)C(c2ccccc2)N1 (stereo not drawn)	1.58 µM [rising, partial curve]
Cn1c(SCc2nc3ccccc3c(=O)[nH]2)nnc1-c1ccco1	25.1 µM [rising, single point]
Cc1onc(-c2ccccc2)c1C(=O)Nc1nc(-c2cc(F)ccc2F)cs1	2.51 µM [falling, partial curve]
CCOC(=O)c1c(N)n(CCOC(=O)c2cccs2)c2nc3ccccc3nc12	12.6 µM [rising, partial curve]
CC[C@H]1C(=O)OC[C@@H]1Cc1cncn1C	5.01 µM [falling, full curve, poor fit]
C=CCn1c(=O)/c(=C/c2cc(OC)c(OC)c(OC)c2)s/c1=C(/C#N)c1nc2ccccc2n1C	0.794 µM [rising, full curve]
COc1ccc(Oc2ncc3ncc(=O)n(Cc4cccc(OC)c4)c3n2)cc1	12.6 µM [rising, partial curve]
C=CCN1C(c2ccccc2)=CS/C1=C(\C#N)c1nnc2n1CCCCC2	5.01 µM [falling, single point]
Cc1ccc(S(=O)(=O)N2CCN(C(=O)CN3CCN(C)CC3)C2)cc1	0.251 µM [falling, full curve, poor fit]
COc1ccccc1C(=O)Nc1cccc(-c2cn3ccsc3n2)c1	2.51 µM [rising, full curve]
COc1nc(Nc2ccc(OC)c(Cl)c2)nc(OC)n1	7.94 µM [rising, partial curve]
O=C(CSc1nnc2scc(-c3ccccc3)n12)N1CCCc2ccccc21	10 µM [rising, partial curve, poor fit]

SMILES	AC50
O=C(c1cnccn1)N1CCC[C@@]2(CCN(Cc3nccs3)C2)C1	5.01 µM [falling, single point]
O=P(O)(O)c1ccccc1OCCOCCOc1ccccc1P(=O)(O)O	25.1 µM [rising, single point]
COc1ccc(NC(=O)N2CC[C@@]3(CCCN(C(=O)c4ccco4)C3)C2)cc1	3.16 µM [falling, single point]
CCn1c(CNC(C)=O)nnc1SCC(=O)c1ccc(Br)cc1	25.1 µM [rising, partial curve]
Cc1oc(C)c2c(=O)ccc3c(c12)OC(N)=C(C#N)C3c1ccccc1 (stereo not drawn)	0.631 µM [rising, full curve]
Cc1cc(C)cc(NC2=NC3(CCCCC3)N=C(N)N2)c1	12.6 µM [rising, partial curve]
COCCn1c(=O)c(-c2cccs2)nc2cnc(Oc3cccc(Cl)c3)nc21	12.6 µM [rising, partial curve]
O=C(C1CCC1)N1CCc2cc(S(=O)(=O)N3CCc4ccccc4C3)ccc21	0.126 µM [falling, full curve, poor fit]
O=c1c(-c2ccc(F)cc2)nc2cnc(N3CCOCC3)nc2n1C[C@H]1CCCO1	0.631 µM [rising, full curve]
COc1cccc(Cn2c(=O)c(C)nc3cnc(OCc4ccccc4)nc32)c1	10 µM [rising, partial curve]
CN[C@@H](c1ccncc1)[C@@H](NC)c1ccncc1	1 µM [falling, single point]
COCCCNC(=O)c1ccc2c(=O)n(C3CCCC3)c(=S)[nH]c2c1	5.01 µM [falling, single point]
N#Cc1cccc(-c2nc3cnc(Nc4ccccc4)nc3n(C[C@H]3CCCO3)c2=O)c1	5.01 µM [rising, partial curve]
CC1CCC2(CC1)NC(=O)N(Cc1nc(-c3ccccc3)no1)C2=O (stereo not drawn)	6.31 µM [rising, partial curve]
CCCc1ccc(Oc2c(-c3ccc(O)c(C)c3O)n[nH]c2C)cc1	25.1 µM [falling, single point]
CCCn1c(=O)c2c(nc(Br)n2CCC)n(C)c1=O	10 µM [rising, partial curve]
O=C(CC1Nc2ccccc2NC1=O)Nc1ccccc1 (stereo not drawn)	10 µM [rising, partial curve]
CC(C)N(Cc1ccccc1)C(=O)COC(=O)c1ccc2c(c1)OCCO2	5.01 µM [falling, partial curve]
COc1ccc(CC(=O)Nc2cccc(-c3nnc(-c4ccc(C)cc4)o3)c2)cc1OC	5.01 µM [falling, single point]
CCN(Cc1ccccc1)C(c1ccccn1)c1nnnn1C(C)(C)CC (stereo not drawn)	0.00316 µM [falling, full curve, poor fit]
Cc1ccc(Oc2cc(C)nc(-c3ccccc3O)n2)cc1	12.6 µM [rising, single point]
COc1cc2c(cc1OC)-c1nnc(C)n1C1(CCCC1)C2	10 µM [rising, partial curve]
Cc1cccc(-c2c3c(=O)n(C)c(=O)n(C)c3cn2C(C)C)c1	10 µM [rising, partial curve]

SMILES	AC50
O=C(O)CCC(=O)N1CCN(c2ccccn2)CC1	0.01 µM [falling, full curve, poor fit]
CCN1c2ccccc2NC2N=C(OC)C(c3ccccc3)C21 (stereo not drawn)	10 µM [rising, partial curve]
COc1ccc(C2=NOC(C(=O)NCc3ccc(F)cc3)C2)cc1OC (stereo not drawn)	12.6 µM [rising, partial curve]
Cc1ccccc1OCC1Cn2c(nc3c2c(=O)[nH]c(=O)n3C)O1 (stereo not drawn)	20 µM [rising, single point]
COc1ccccc1Nc1nnc(SCC(=O)N2CCCC2=O)s1	5.01 µM [falling, single point]
COc1ccc(OC)c(NC(=O)c2ccc(S(=O)(=O)N3CCN(C)CC3)cc2)c1	12.6 µM [rising, single point]
CN1C(=O)NC(NC(=O)c2cccs2)(C(F)(F)F)C1=O (stereo not drawn)	0.398 µM [falling, partial curve]
COc1cccc(Cn2c(=O)c(-c3cccc(C#N)c3)nc3cnc(OC)nc32)c1	3.16 µM [rising, full curve, poor fit]
O=C(Nc1ccccc1)c1ccc2nc(-c3ccco3)c(-c3ccco3)nc2c1	12.6 µM [rising, single point]
CCOCCCN(C(=O)Nc1ccc(CC)cc1)C1CCN(C(C)=O)CC1	25.1 µM [rising, single point]
CCCCCn1c(SCCC(C)C)nc2c1c(=O)[nH]c(=O)n2C	15.8 µM [rising, partial curve]
O=C(CSc1nc2ccccc2[nH]1)NCCN1CCCCC1	0.1 µM [rising, partial curve, poor fit]
CCN(CCCNc1ncnc2nc[nH]c12)c1cccc(C)c1	5.01 µM [rising, full curve]
[O-]/[N+](=C\c1ccncc1)c1ccccc1	5.01 µM [falling, partial curve]
CCCCOC(=O)C1=C(C)Nc2ncnn2C1c1cc(OC)ccc1OC (stereo not drawn)	0.316 µM [falling, partial curve]
O=C(Nc1ccn(-c2ccccc2)n1)c1ccc(S(=O)(=O)N2CCCCCC2)cc1	0.398 µM [falling, full curve]
Cc1ccc(S(=O)(=O)Nc2cc(C(=O)N3CCOCC3)ccc2N2CCCCC2)cc1	6.31 µM [rising, partial curve]
CCOCCCNC(=O)c1c[nH]c2cc(C)ccc2c1=O	3.98 µM [falling, single point]
CCOc1ccccc1NC(=O)c1ccc(F)c(S(=O)(=O)N2CCC3(CC2)OCCO3)c1	25.1 µM [rising, single point]
CCN(CC)S(=O)(=O)c1ccc2nc(CSc3nnnn3-c3ccc(O)cc3)[nH]c2c1	0.00398 µM [falling, full curve, poor fit]
Cc1c(-n2cc(C(=O)O)c(=O)c3cc(F)c(N4CCCC4)c(F)c32)c(=O)n(-c2ccccc2)n1C	10 µM [rising, partial curve]
CC(C(=O)OCn1nnc2ccccc2c1=O)N1C(=O)c2ccccc2C1=O (stereo not drawn)	0.794 µM [falling, single point]

Reformatted with bars between the fields: part of the list above.
SMILES | AC50
COc1ccc(C2=NOC(C(=O)NCc3ccc(F)cc3)C2)cc1OC (stereo not drawn) | 12.6 µM [rising, partial curve]
Cc1ccccc1OCC1Cn2c(nc3c2c(=O)[nH]c(=O)n3C)O1 (stereo not drawn) | 20 µM [rising, single point]
COc1ccccc1Nc1nnc(SCC(=O)N2CCCC2=O)s1 | 5.01 µM [falling, single point]
